At least one structure is not confirmed: it was looked up by name or label, or the drawing left a doubt.
System: Raf-1^gof TSCs
Assay: Visualization of Raf-1^gof tumors in dissected guts by esg-GFP and Delta staining
Format: in vivo, Drosophila
Details: DMSO control
Procedure: Samples were incubated 1 hour in 5% NDS blocking solution, overnight in primary antibody, 1.5 hours in secondary antibody and 6 minutes in DAPI. They were rinsed and washed between steps in PBS containing 0.1% Triton X-100. Finally they were placed in mounting media (Vectashield) and mounted for microscopy. Images were taken with a Leica TCS SP2 confocal microscope.
Primary screening drugs were provided by the Harvard Institute for Chemistry and Cell Biology (ICCB; 480 known bioactives library), and the National Cancer Institute (NCI) Drug Therapeutics Program (library of 88 FDA-approved oncology drugs). Secondary assays were conducted with freshly prepared 10 mM stocks that were diluted 1:100 in fly food, giving a final concentration of 100 μM.
Drugs were dissolved in 100% DMSO. Drugs were mixed 1:100 with molten fly food at 37° C. and then aliquoted to either 5 mL tubes or 1 mL wells of a 96-well plate.
Control flies were treated with DMSO.
Flies were treated with DMSO alone as a control.

CO[C@H]1C[C@@H]2CC[C@@H](C)[C@@](O)(O2)C(=O)C(=O)N2CCCC[C@H]2C(=O)O[C@H]([C@H](C)C[C@@H]2CC[C@@H](O)[C@H](OC)C2)CC(=O)[C@H](C)/C=C(\C)[C@@H](O)[C@@H](OC)C(=O)[C@H](C)C[C@H](C)/C=C/C=C/C=C/1C [Rapamycin]
effect on Raf-1^gof tumor cells / tumor growth: reduced tumor growth

Reference: patent US20130096067A1, “DROSOPHILA TUMOR STEM CELL MODEL AND USES THEREOF” (priority 2011, published 2013)
